# Percent effect of library compounds

Protein sequences, listed by entry. Tags and fused reporters are not part of them. Residues count along the entry.
UniProt Q8IDJ8, 1-583: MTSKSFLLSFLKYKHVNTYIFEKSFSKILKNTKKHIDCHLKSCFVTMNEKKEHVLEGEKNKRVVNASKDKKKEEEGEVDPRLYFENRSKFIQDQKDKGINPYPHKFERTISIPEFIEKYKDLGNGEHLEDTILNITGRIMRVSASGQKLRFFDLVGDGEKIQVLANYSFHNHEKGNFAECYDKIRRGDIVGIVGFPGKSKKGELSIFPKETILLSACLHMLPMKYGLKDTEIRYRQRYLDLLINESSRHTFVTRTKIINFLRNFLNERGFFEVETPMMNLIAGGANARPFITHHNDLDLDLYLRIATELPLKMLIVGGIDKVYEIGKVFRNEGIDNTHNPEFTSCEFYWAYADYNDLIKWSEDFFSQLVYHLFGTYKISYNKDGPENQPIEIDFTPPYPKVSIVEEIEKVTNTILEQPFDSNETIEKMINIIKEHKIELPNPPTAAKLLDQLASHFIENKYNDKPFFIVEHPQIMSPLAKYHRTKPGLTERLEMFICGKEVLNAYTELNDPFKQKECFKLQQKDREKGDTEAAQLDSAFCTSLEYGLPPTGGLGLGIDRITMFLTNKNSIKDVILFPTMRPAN
UniProt P9WFT3, whole entry: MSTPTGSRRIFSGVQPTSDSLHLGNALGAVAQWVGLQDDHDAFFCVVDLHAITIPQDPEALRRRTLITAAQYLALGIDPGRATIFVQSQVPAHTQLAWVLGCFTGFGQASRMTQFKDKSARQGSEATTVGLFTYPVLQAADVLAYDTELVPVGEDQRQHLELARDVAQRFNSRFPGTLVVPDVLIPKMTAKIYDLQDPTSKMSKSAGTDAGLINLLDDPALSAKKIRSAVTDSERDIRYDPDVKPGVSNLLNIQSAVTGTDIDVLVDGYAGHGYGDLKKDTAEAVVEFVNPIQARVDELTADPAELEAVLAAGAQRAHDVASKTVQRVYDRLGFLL
UniProt P9WPC5, whole entry: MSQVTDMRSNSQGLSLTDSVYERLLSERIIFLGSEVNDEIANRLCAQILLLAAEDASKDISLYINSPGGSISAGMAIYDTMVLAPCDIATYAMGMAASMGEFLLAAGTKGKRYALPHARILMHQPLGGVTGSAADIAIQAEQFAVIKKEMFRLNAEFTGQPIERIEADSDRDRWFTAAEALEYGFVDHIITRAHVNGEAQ
UniProt P9WPC3, whole entry partner: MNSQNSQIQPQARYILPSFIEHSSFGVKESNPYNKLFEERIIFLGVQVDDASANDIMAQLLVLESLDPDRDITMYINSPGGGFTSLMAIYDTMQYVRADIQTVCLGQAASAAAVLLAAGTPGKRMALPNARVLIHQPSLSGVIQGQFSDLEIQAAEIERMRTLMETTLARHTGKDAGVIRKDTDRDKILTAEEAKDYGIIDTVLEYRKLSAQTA
UniProt Q4DA54, 1-478: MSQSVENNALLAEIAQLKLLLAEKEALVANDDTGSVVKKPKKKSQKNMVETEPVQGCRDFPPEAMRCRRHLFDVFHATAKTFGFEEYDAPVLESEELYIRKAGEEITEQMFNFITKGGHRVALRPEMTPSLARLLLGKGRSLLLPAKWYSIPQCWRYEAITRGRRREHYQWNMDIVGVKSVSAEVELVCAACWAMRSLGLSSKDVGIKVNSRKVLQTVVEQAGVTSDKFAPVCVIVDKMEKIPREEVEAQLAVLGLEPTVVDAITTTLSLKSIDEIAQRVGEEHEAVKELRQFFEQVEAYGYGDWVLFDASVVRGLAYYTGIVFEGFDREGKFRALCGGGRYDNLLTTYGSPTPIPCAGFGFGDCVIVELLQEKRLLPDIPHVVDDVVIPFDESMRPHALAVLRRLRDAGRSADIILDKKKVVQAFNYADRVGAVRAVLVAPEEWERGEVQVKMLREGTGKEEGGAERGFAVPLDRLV

Data taken from ChEMBL document CHEMBL3988442, “University of Dundee, Small-Polar-MMV Screening Library” (2021).

PfKRS1: 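Enzyme assay of the cytosolic lysyl-tRNA synthetase in 384-well plates, read by luminescence. Target: Lysine-tRNA ligase, Plasmodium falciparum 3D7 (UniProt Q8IDJ8). Compounds at 30 µM. Direction is inferred from only a few compounds that gave an IC50; most scored high, so higher reads as stronger inhibition. Of about 69,000 compounds tested this way, about 49 (0.071%) reached 50% or more in at least one test.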
MtTrpRS: 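Tryptophan-tRNA ligase, Mycobacterium tuberculosis (UniProt P9WFT3). Enzyme assay of tryptophanyl-tRNA synthetase; the read-out is not stated. Concentration: 10 µM. Higher most likely means stronger inhibition; the record gives no direction and few retests gave an IC50. About 65,000 compounds were tested under these conditions; 0.098% (about 64) showed 50% or more at least once.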
ClpP1P2: 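ClpP1P2, Mycobacterium tuberculosis (UniProt P9WPC5 and UniProt P9WPC3). Protease assay of ClpP1P2, read by the AMC dye that it sets free. Compounds at 50 µM. Direction is inferred from only a few compounds that gave an IC50; most scored high, so higher reads as stronger inhibition. Most other retested compounds had strongly negative values. About 69,000 compounds were tested under these conditions; 0.015% (about 10) showed 50% or more at least once.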
TcHisRS: 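Histidine-tRNA ligase, Trypanosoma cruzi CL Brener (UniProt Q4DA54). Enzyme assay of histidyl-tRNA synthetase; the read-out is not stated. Compounds at 30 µM. Higher reads as stronger inhibition (inferred: compounds with an IC50 in retests scored well above the rest). About 69,000 compounds were tested under these conditions; 0.045% (about 31) showed 50% or more at least once.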

Values are the deposited “Percent Effect”, in %. The record does not define 0% and 100%; most values in the screen are far below 50% and negative numbers occur (in some assays of this library far below -100). The compounds are a random part of those screened.

Result for CCCn1[nH]c(CNc2cccc(Cl)c2)nc1=O was PfKRS1: 0.4745%; MtTrpRS: 5.385%; ClpP1P2: 7.193%; TcHisRS: -4.878%.
Result for CCCc1nc(N[C@H]2COC[C@@H]2N2CCCC2)c2cnn(C)c2n1 was PfKRS1: 2.71%; MtTrpRS: -2.353%; ClpP1P2: -16.35%; TcHisRS: 11.6%.
Result for CCc1ccc(C(=O)O)cc1S(=O)(=O)Nc1ccc(F)c(C#N)c1 was PfKRS1: 1.204%; MtTrpRS: -3.678%; ClpP1P2: 8.974%; TcHisRS: 2.256%.
Result for CC(c1ccncc1)N(CCN(C)C)C(=O)Nc1ccc(Cl)cc1 (configuration not stated) was PfKRS1: -2.299%; MtTrpRS: 2.249%; ClpP1P2: 2.862%; TcHisRS: 3.659%.
Result for Cc1cc(C2CCCN2C(=O)c2cc3c(s2)CCC3)on1 (configuration not stated) was PfKRS1: 3.189%; MtTrpRS: 0.6289%; ClpP1P2: 4.953%; TcHisRS: 1.901%.
Result for Cc1c(C)n(CC(O)CN2CCOCC2)c2c(Cl)cccc12 (configuration not stated) was PfKRS1: 5.067%; MtTrpRS: -2.129%; ClpP1P2: -7.846%; TcHisRS: 4.39%.
Result for O=S(=O)(c1cccs1)N1Cc2nc(CN3CCCCC3)oc2C1 was PfKRS1: 2.873%; ClpP1P2: -0.9097%; TcHisRS: 2.513%.
Result for CN1CCN(Cc2ccccc2Oc2nccc3occc23)CC1 was PfKRS1: -0.3458%; MtTrpRS: -2.051%; ClpP1P2: -2.187%; TcHisRS: 12.35%.
Result for CC(C)N1CCOCC2(CCCN(C(=O)c3cn(C)cn3)C2)C1 (configuration not stated) was PfKRS1: 6.071%; MtTrpRS: 4.068%; ClpP1P2: -5.488%; TcHisRS: 5.882%.
Result for COc1c(CNC2CCCOc3ccc(F)cc32)c(C(C)C)nn1C (configuration not stated) was PfKRS1: 1.885%; MtTrpRS: -6.671%; ClpP1P2: -5.539%; TcHisRS: -2.339%.
Result for CN(C)C(=O)CN1C[C@H]2CN(Cc3cccc(F)c3)C(=O)[C@H]2C1 was PfKRS1: 5.852%; MtTrpRS: -0.2292%; ClpP1P2: 4.085%; TcHisRS: 12.61%.
Result for CCOCCC(=O)NCc1ccnc(NC2CC2)c1 was PfKRS1: 1.382%; MtTrpRS: -4.47%; ClpP1P2: -2.967%; TcHisRS: 6.145%.
Result for CC(C)N1CCC2(CC1)CC(=O)N(Cc1cc(F)cc(F)c1)C2 was PfKRS1: 4.477%; MtTrpRS: 4.255%; ClpP1P2: 5.857%; TcHisRS: 1.508%.
Result for CO[C@H]1C[C@@H](O)C12CCN(C(=O)CCCOc1ccccc1)CC2 was PfKRS1: -2.958%; MtTrpRS: -1.152%; ClpP1P2: -7.745%; TcHisRS: 11.88%.
Result for CC(=O)NCC(=O)Nc1cc(C)n(-c2ccc(Cl)cc2Cl)n1 was PfKRS1: 8.487%; MtTrpRS: 0.6256%; ClpP1P2: 2.613%; TcHisRS: 6.878%.
Result for N#CC1(NC(=O)c2ccc(-c3nc(C4CC4)n[nH]3)cc2)CCC1 was PfKRS1: -1.253%; MtTrpRS: 1.039%; ClpP1P2: -1.274%; TcHisRS: 6.25%.
Result for Cc1cccc(OCCCNC(=O)NC(C)c2nncn2C)c1 (configuration not stated) was PfKRS1: 19.66%; MtTrpRS: -2.685%; ClpP1P2: -12.49%; TcHisRS: -0.8403%.
Result for Cc1noc(C)c1CN1C[C@@H]2CC[C@H](C1)N(Cc1cc(F)cc(F)c1)C2 was PfKRS1: 5.228%; MtTrpRS: 2.528%; ClpP1P2: -8.276%; TcHisRS: 2.703%.
Result for Fc1ccc(CN2CCOCC3(CCN(Cc4nccs4)C3)C2)cc1 (configuration not stated) was PfKRS1: 4.651%; MtTrpRS: -4.941%; ClpP1P2: 2.608%; TcHisRS: 11.49%.
Result for COc1ccc(CN(C)[C@@H]2CN(C(=O)c3cccn3C)C[C@H]2O)cc1 was PfKRS1: -1.07%; ClpP1P2: -10.34%; TcHisRS: 4.255%.
Result for CN(Cc1noc(C(C)(C)C)n1)CC1CCN(CCO)CC1 was PfKRS1: 6.452%; MtTrpRS: -3.263%; ClpP1P2: -2.738%; TcHisRS: 3.941%.
Result for CCC(CC)(CNC(=O)OC(C)(C)C)NC(=O)c1cnccn1 was PfKRS1: 1.926%; MtTrpRS: 0.8396%; ClpP1P2: 3.586%; TcHisRS: 4.082%.
Result for CCOCc1nccc(-c2ccc(OCC)c(C(=O)O)c2)n1 was PfKRS1: -0.8512%; MtTrpRS: -1.944%; ClpP1P2: -2.62%; TcHisRS: 7.143%.
Result for CC(C)(N)CN1CCC(c2nnc(CN3CCCC3)n2C2CC2)CC1 was PfKRS1: 4.716%; MtTrpRS: 0.1776%; ClpP1P2: -8.713%; TcHisRS: 4.564%.
Result for CC(=O)NCc1cc2n(n1)CCN(Cc1cc(-c3ccccc3)no1)C2 was PfKRS1: 2.483%; MtTrpRS: 2.175%; ClpP1P2: -3.074%; TcHisRS: 0%.
Result for CCOc1cc(=O)n2c(c1C(=O)OCc1ccc(C)cc1)CCCC2 was PfKRS1: 1.449%; MtTrpRS: -3.376%; ClpP1P2: 11.45%; TcHisRS: 9.901%.
Result for O=C(CCCOc1ccccc1Cl)N1CCCC(n2cncn2)C1 (configuration not stated) was PfKRS1: 3.212%; MtTrpRS: 2.004%; ClpP1P2: -9.271%; TcHisRS: 1.527%.
Result for OCCOc1ccccc1CN1CCCC(O)(CO)C1 (configuration not stated) was PfKRS1: -0.2597%; MtTrpRS: 4.935%; ClpP1P2: 7.695%; TcHisRS: 2.809%.
Result for COc1ccc(C(C)N(C)Cc2c(C(C)C)[nH]c3ncccc23)cc1 (configuration not stated) was PfKRS1: -0.2634%; MtTrpRS: 13.32%; ClpP1P2: -21.54%; TcHisRS: 2%.